The values that follow come from ChEMBL document CHEMBL4190317, “Design, synthesis, and biological evaluation of novel 3-substituted imidazo[1,2-a]pyridine and quinazolin-4(3H)-one derivatives as PI3Kα inhibitors” (Eur J Med Chem, 2017).

Each structure is given as a SMILES string.

The test system of one experiment is SNU-638. Briefly: Antiproliferative activity against human SNU638 cells after 72 hrs by SRB assay. As to conditions: SNU-638, 72 h. For orientation: The SRB assay estimates cell density from bound dye.
The subject of another experiment is HCT-116. Briefly: cells. To be noted: Homo sapiens, HCT-116, 72 h.
The next experiment deals with HUVEC. Briefly: Cytotoxicity against HUVEC after 72 hrs by SRB assay. To be noted: Homo sapiens.
For the next experiment, the system named is SK-HEP1. Briefly: Antiproliferative activity against human SKHEP1 cells after 72 hrs by SRB assay. As to conditions: SK-HEP1, 72 h.

By IC50 is commonly meant the concentration that inhibits the measured activity by half. A lower IC50 goes with greater potency. For `COc1ncc(-c2ccc3ncc(C(=O)NCCN4CCOCC4)n3c2)cc1NS(=O)(=O)c1ccc(F)cc1F`, the IC50 is 10 nM with SNU-638, 10 nM with HCT-116, 2940 nM in the experiment with HUVEC and 110 nM in the experiment with SK-HEP1.
